Data taken from article PMC7988490, “Molecular insights into replication initiation in a multipartite genome harboring bacterium Deinococcus radiodurans” (The Journal of Biological Chemistry, 2020).
Results are given in words; binding and its absence hold for the method and conditions named. For some assays here: Binding seen in cells or lysates may run through a third protein. Some entries that bind do so weakly or less than the wild type. Where a sequence is shown, tags or fusion partners need not be part of it.

Key:
[1] = molecular target: T1, PprA-C18 (T18-tagged PprA of D. radiodurans, expressed from pUTpprA) (D. radiodurans) (UniProt O32504); test: two-hybrid; bacterial two-hybrid (BACTH) in E. coli BTH101 (cyaA-); T18 and T25 fusions co-expressed; β-galactosidase in spot test and liquid culture
T1 sequence: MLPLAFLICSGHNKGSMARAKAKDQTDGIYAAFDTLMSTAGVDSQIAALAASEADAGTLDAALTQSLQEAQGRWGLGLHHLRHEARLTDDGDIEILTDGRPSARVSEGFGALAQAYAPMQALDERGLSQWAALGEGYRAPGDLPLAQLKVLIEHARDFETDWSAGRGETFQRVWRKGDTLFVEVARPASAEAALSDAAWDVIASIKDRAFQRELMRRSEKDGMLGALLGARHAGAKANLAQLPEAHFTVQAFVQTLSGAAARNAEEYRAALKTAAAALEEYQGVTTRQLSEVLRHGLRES

[2] = molecular target: drDnaA (DR_0002) as C-terminal BACTH fusion with the T18 or T25 domain of CyaA (D. radiodurans) (UniProt Q9RYE7); test: as above
[3] = molecular target: drDnaA (DR_0002) as C-terminal BACTH fusion with the T18 or T25 domain of CyaA (D. radiodurans) (UniProt Q9RYE7); test: two-hybrid; BACTH in E. coli BTH101 co-expressing drDnaA and drDnaB C-terminal T18/T25 fusions, with PprA expressed from pSpecpprA or the vector p11559 as control; β-galactosidase in spot test and liquid assay
[4] = molecular target: drDnaA expressed on plasmids in D. radiodurans R1, with T18 tag (DA-C18, pV18DA) or with polyhistidine tag (HisDA, pRADhisDA) (D. radiodurans) (UniProt Q9RYE7); test: co-IP; cell-free extracts of D. radiodurans R1 co-expressing polyhistidine-tagged and T18-tagged proteins from plasmids; precipitated with antipolyhistidine antibodies, detection with T18 antibodies
[5] = molecular target: T2, native PprA expressed on the chromosome of D. radiodurans R1 (D. radiodurans (endogenous in D. radiodurans R1)) (UniProt O32504); test: co-IP; cell-free extracts of D. radiodurans R1 transformed with pV18DA or pV18DB (5 mM IPTG); native PprA precipitated with anti-PprA antibodies, detection with T18 antibodies
T2 sequence: T1 sequence

B1: drDnaA (DR_0002) as C-terminal BACTH fusion with the T18 or T25 domain of CyaA (protein, UniProt Q9RYE7 1-466)
chain: MSQEIWADVLAYVRKNVSDLEYTTWFAPVKPLGVQEGSLLLGVRNSFTKDWFRDHYLELLLAALRSLGAEHPQVEFQVLPAAQDALLLPNDPPPAPEAAAPTPKTKAAPTPPPSTPGDNRKTLNPKYTFENFVVGPNNNLAHAAALAVAESPGKAYNPLFIYGDVGLGKTHLMHAVGHYLAERFPEKRIEYVSTETFTNELINAIRDDKTTQFRNRYRSVDLLLVDDIQFLAGKERTQEEFFHTFNALYESNKQIILSSDRPPKDIQTLEGRLRSRFEWGLITDIQSPEYETRVAILKMNAEQGHITIPQEVLELIARQVTSNIRELEGALMRVVAFASLNNVPFSRAAAAKALSNVFAPQEAKVEMTDVLRQVAAHYGTTPDLIRGSGRARDIVVPRQVAQYLIRALTDHSLPEIGQFFGRDHSTVMHAVSKITEQMGKDPELAATVNTLRNRIQGKEEEEEVGA
For B1, the binding [1] was “binds”, the binding [2] was “binds” and the binding [3] was “binds”.

B2: drDnaA expressed on plasmids in D. radiodurans R1, with T18 tag (DA-C18, pV18DA) or with polyhistidine tag (HisDA, pRADhisDA) (protein, UniProt Q9RYE7 1-466)
chain: B1 chain
For B2, the binding [4] was “binds” and the binding [5] was “binds”.
